Experiments:
SARS-CoV-2 [1] = assay: microbe, parasite or virus in culture; conditions: Severe acute respiratory syndrome coronavirus 2, Caco-2, 48 h, read-out: Results SARS-CoV-2 (Caco-2) IC50
SARS-CoV-2 [2] = conditions: printed as CI = IC50/CC50; Caco-2 toxicity versus SARS-CoV-2 anti-cytopathic effect
MERS-CoV = conditions: BHK-21; read-out: Reports MERS (Vero-6, Calu-3 or BHK21) IC50; cited from earlier work

Clc1ccc(CSC(Cn2ccnc2)c2ccc(Cl)cc2Cl)cc1 (stereo not drawn) [sulconazole]
IC50 (SARS-CoV-2 [1]): ≥ 20 µM

CCCCCCCCCCCCCCCC[n+]1ccccc1 [cetylpyridinium]
CI (cytotoxicity index) (SARS-CoV-2 [2]): < 3 | IC50 (MERS-CoV): 690 nM
